Data reported in paper PMC10208570, “Peptidomimetic antibiotics disrupt the lipopolysaccharide transport bridge of drug-resistant Enterobacteriaceae” (Science Advances, 2023).
No constants are given. Whether binding was seen depends on the method and setting.

Biological target: mLptA (E. coli), LptA(25-185) E39V M47A R76A (E. coli (ATCC 25922)) (UniProt P0ADV1)
Experiment: SEC-MALS; purified Lpt proteins and their mixtures (figs. S4 and S5); both purified

B1: mLptA (E. coli), LptA(25-185) E39V M47A R76A (domain or fragment, UniProt P0ADV1 25-185)
chain: GAFAVTGDTDQPIHIVSDQQSLDAQGNVVTFTGNVIVTQGTIKINADKVVVTAPGGEQGKEVIDGYGKPATFYQMQDNGKPVEGHASQMHYELAKDFVVLTGNAYLQQVDSNIKGDKITYLVKEQKMQAFSDKGKRVTTVLVPSQLQDKNNKGQTPAQKKGN
  binding: no binding
